Values from PubChem BioAssay AID1259254 (NCATS, 2017).

- Aim: 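Gene knock-downs that lead to re-replication, shown by excess G2 DNA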 (primary screen)
- Cells: human HCT116 colorectal cancer cells
- Knock-down reagent: single siRNA against human genes
- Duration: 3 days
- Measured: 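Nuclei stained with Hoechst and imaged; cell-cycle phase assigned by DNA content; G2 share scaled per plate, non-targeting siRNA 0%, GMNN siRNA 100%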
- Direction: G2 robust z-score and G2 cells, % of GMNN control: higher = more G2 cells, more excess DNA replication; raw share of cells in G2: higher = larger share of cells with G2 DNA content
- Rule for the call: 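Active siRNAs have a G2 robust z of 5 or more median absolute deviations over the median, which in these data means about 38% or higher of GMNN control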
The deposit covers about 59,000 reagents; shown is a random part of them. About 1,550 of them (2.6%) count as active. 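G2 share is only a proxy for re-replication; each gene was hit by three separate siRNAs, and active genes were retested.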 The raw values are shown without normalisation. Entries without a mark were called inactive. Reagents against one gene are numbered here. The record does not give: the amount of reagent.

no.	gene	reagent	G2 robust z-score	G2 cells, % of GMNN control	raw share of cells in G2 (%)
1	PRAP1 (GeneID 118471)	1	-0.552	-0.916	1.55
2	PRAP1 (GeneID 118471)	2	-0.555	-0.939	3.72
3	PRAP1 (GeneID 118471)	3	1.57	14	7.51
4	RPS6KA5 (GeneID 9252)	1	14.5 (active)	105	38.2
5	RPS6KA5 (GeneID 9252)	2	-1.11	-4.86	3.42
6	RPS6KA5 (GeneID 9252)	3	-0.825	-2.84	2.77
7	TAS2R4 (GeneID 50832)	1	3.7	29	14.9
8	TAS2R4 (GeneID 50832)	2	3.08	24.7	13.9
9	TAS2R4 (GeneID 50832)	3	4.02	31.3	13.1
10	AP2A2 (GeneID 161)	1	-1.1	-4.77	3.1
11	AP2A2 (GeneID 161)	2	-1.61	-8.33	2.11
12	AP2A2 (GeneID 161)	3	-0.879	-3.22	2.79
13	DRC5 (GeneID 202500)	1	-1.17	-5.27	1.67
14	DRC5 (GeneID 202500)	2	0.537	6.75	5.44
15	DRC5 (GeneID 202500)	3	2.44	20.1	9.62
16	CFD (GeneID 1675)	1	1.71	15	10.8
17	CFD (GeneID 1675)	2	-0.28	0.996	5.26
18	CFD (GeneID 1675)	3	-0.659	-1.67	3.29
19	LOC646853 (GeneID 646853)	1	-0.47	-0.341	3.1
20	LOC646853 (GeneID 646853)	2	0.574	7.01	5.27
21	LOC646853 (GeneID 646853)	3	-1.01	-4.15	2.21
22	CAPS2 (GeneID 84698)	1	-0.955	-3.75	1.47
23	CAPS2 (GeneID 84698)	2	-0.0358	2.72	7.14
24	CAPS2 (GeneID 84698)	3	-0.862	-3.1	2.66
25	KRT10 (GeneID 3858)	1	-0.688	-1.87	4.36
26	KRT10 (GeneID 3858)	2	-0.0206	2.82	6.76
27	KRT10 (GeneID 3858)	3	0.714	7.99	7.13
28	SRL (GeneID 6345)	1	-0.839	-2.93	4.69
29	SRL (GeneID 6345)	2	-1.01	-4.13	3.13
30	SRL (GeneID 6345)	3	-0.287	0.95	4.27

Look-ups from the list:
Value of PRAP1 (GeneID 118471) #2 under “raw share of cells in G2 (%)”: 3.72
Entry for AP2A2 (GeneID 161) #1 in “G2 cells, % of GMNN control”: -4.77
TAS2R4 (GeneID 50832) #2, G2 cells, % of GMNN control: 24.7
